# Results reported in article doi:10.1101/412908.
# Chains of the proteins cited; added tags and fusions are not shown. Lines headed by an entry give the natural chain unless they say otherwise; changes in a name come on top. A line that says so, or that is headed by a name, gives the form on record, which may keep a tag or linker.
# WT-tau(4R0N) (P10636, form named): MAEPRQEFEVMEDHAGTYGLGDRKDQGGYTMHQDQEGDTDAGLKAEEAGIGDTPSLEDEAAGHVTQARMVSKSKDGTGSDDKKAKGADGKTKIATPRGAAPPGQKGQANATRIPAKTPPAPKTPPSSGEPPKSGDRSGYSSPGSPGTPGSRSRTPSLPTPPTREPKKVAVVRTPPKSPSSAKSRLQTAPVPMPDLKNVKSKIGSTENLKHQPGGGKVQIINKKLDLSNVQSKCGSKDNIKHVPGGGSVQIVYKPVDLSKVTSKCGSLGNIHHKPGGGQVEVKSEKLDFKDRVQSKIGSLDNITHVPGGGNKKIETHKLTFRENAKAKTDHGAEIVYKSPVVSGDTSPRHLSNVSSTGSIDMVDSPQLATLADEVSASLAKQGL
# UniProt O95433: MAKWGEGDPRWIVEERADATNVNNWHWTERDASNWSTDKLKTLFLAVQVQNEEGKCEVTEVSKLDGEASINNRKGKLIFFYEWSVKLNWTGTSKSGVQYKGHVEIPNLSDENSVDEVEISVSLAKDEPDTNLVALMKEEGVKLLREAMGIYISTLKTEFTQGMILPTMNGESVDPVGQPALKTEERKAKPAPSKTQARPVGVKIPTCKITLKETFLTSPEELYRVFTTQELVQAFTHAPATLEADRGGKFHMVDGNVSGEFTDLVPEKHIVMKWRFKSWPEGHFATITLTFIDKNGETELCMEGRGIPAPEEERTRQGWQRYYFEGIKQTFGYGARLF
# These are yes or no findings as the source states them, for the method shown. In cells and extracts the contact can be indirect. Some results given as binding are weak or reduced against the parent protein; the word gives no strength.
# Biological target: WT-tau(4R0N) (UniProt P10636)
# Experiment: co-IP
substance,measurement,value
"Aha1 (endogenous, HeLa) (from UniProt O95433 1-338)",binding,binds
